No constants are given. Whether binding was seen depends on the method and setting. Some binding calls cover weakened binding; strength is not graded here.
Columns and labels:
[1] = target: canine TNF-α (canine) (UniProt P51742); assay: ELISA
[2] = target: Recombinant human TNF-α (human) (UniProt P01375); assay: ELISA

Chains of the proteins cited; added tags and fusions are not shown. Residues count along the entry.
UniProt P51742, residues 77-233: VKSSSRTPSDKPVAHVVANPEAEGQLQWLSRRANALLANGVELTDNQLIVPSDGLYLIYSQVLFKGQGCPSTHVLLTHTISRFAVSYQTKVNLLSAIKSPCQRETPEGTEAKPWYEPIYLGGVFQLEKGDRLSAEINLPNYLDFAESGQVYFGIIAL
UniProt P01375, residues 77-233: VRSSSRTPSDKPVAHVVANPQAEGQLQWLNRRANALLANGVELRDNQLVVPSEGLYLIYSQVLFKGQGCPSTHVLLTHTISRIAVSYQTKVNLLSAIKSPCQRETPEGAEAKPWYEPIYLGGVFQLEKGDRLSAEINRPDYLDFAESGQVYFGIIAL

binding [1]: binds
binding [2]: binds
B1: chimeric 4C9 anti-TNF-α antibody, clone 6A9 (antibody, V domains shown)
VH: VQLQESGPSLVKPSQTLSLTCSVTGDSITSGFWNWIRKFPGNKFEYMGYISYSGRTYYNPSLKSRLSITRDTSKNQFYLQLNSVTAEDTATYYCARDANYVLDYWGQGTTLTVSS
VL: DIQLTQSPSSLAMSVGQKVTMNCKSSQSLLNSSTQKNYLAWFQQKPGQSPKLLVYFASARESGVPDRFIGSGSGTDFTLTISSVQAEDLADYFCQQHYRTPFTFGSGTKLEIKR

From US20160311931A1
